Source: PubChem BioAssay AID504784 (Drosophila RNAi Screening Center, 2011)

Assay: 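Fly genes whose silencing alters how much lipid cells keep in droplets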 (primary screen)
Cells: Drosophila Kc167 embryonic cells
Knock-down reagent: long dsRNA against Drosophila genes, about 250 ng dsRNA per well
Duration: 4 days
Conditions: cells fed 400 µM oleic acid bound to BSA
Read-out: 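Microscope images give a droplet-to-nucleus area ratio, taken as log and converted to a screen-wide B-score; higher values mean greater lipid storage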
Direction: droplet/nuclear area B-score: higher = more stored lipid (overstorage)
The deposit covers about 17,000 reagents; below is an unselected part of those with a known target gene and a result. 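Each column is one replicate's B-score; the combined score over replicates was not deposited, so single values may mislead.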 Names joined by + are all predicted targets of the reagent. Further read-outs or replicates are left out here.

{"target gene": "CG1785", "dsRNA": "DRSC18139", "droplet/nuclear area B-score, replicate 1": 1.28}
{"target gene": "CG11811", "dsRNA": "DRSC09862", "droplet/nuclear area B-score, replicate 1": -0.401}
{"target gene": "CG31300", "dsRNA": "DRSC14657", "droplet/nuclear area B-score, replicate 1": -1.18}
{"target gene": "CG34375", "dsRNA": "DRSC14684", "droplet/nuclear area B-score, replicate 1": 0.529}
{"target gene": "CG34375", "dsRNA": "DRSC14685", "droplet/nuclear area B-score, replicate 1": -1.53}
{"target gene": "CG42566", "dsRNA": "DRSC03949", "droplet/nuclear area B-score, replicate 1": -0.474}
{"target gene": "CG13284", "dsRNA": "DRSC02256", "droplet/nuclear area B-score, replicate 1": -0.615}
{"target gene": "dbo", "dsRNA": "DRSC11339", "droplet/nuclear area B-score, replicate 1": -0.937}
{"target gene": "IFT52", "dsRNA": "DRSC03271", "droplet/nuclear area B-score, replicate 1": 0.517}
{"target gene": "Pex6 + Hao", "dsRNA": "DRSC06097", "droplet/nuclear area B-score, replicate 1": -0.859}
{"target gene": "Pex6 + Hao", "dsRNA": "DRSC06704", "droplet/nuclear area B-score, replicate 1": 0.956}
{"target gene": "CG13437", "dsRNA": "DRSC06397", "droplet/nuclear area B-score, replicate 1": 0.107}
{"target gene": "ana3", "dsRNA": "DRSC06289", "droplet/nuclear area B-score, replicate 1": -0.515}
{"target gene": "CG12268", "dsRNA": "DRSC14491", "droplet/nuclear area B-score, replicate 1": 0.937}
{"target gene": "CG7065", "dsRNA": "DRSC18420", "droplet/nuclear area B-score, replicate 1": -1.88}
{"target gene": "Buffy", "dsRNA": "DRSC05957", "droplet/nuclear area B-score, replicate 1": 1.26}
{"target gene": "CG4041", "dsRNA": "DRSC18339", "droplet/nuclear area B-score, replicate 1": 1.06}
{"target gene": "ssp6", "dsRNA": "DRSC08791", "droplet/nuclear area B-score, replicate 1": -0.0726}
{"target gene": "ssp6", "dsRNA": "DRSC10677", "droplet/nuclear area B-score, replicate 1": 0.621}
{"target gene": "CG14126 (retired record)", "dsRNA": "DRSC10130", "droplet/nuclear area B-score, replicate 1": -1.44}
{"target gene": "betaNACtes4", "dsRNA": "DRSC19801", "droplet/nuclear area B-score, replicate 1": -0.555}
{"target gene": "Klp59C", "dsRNA": "DRSC04348", "droplet/nuclear area B-score, replicate 1": 0.501}
{"target gene": "endos", "dsRNA": "DRSC10658", "droplet/nuclear area B-score, replicate 1": 0.453}
{"target gene": "Obp56f", "dsRNA": "DRSC22270", "droplet/nuclear area B-score, replicate 1": -1.31}

Sorted by “droplet/nuclear area B-score, replicate 1” (ascending): 7 of the entries above
{"target gene": "CG7065", "dsRNA": "DRSC18420", "droplet/nuclear area B-score, replicate 1": -1.88}
{"target gene": "Pex6 + Hao", "dsRNA": "DRSC06097", "droplet/nuclear area B-score, replicate 1": -0.859}
{"target gene": "ana3", "dsRNA": "DRSC06289", "droplet/nuclear area B-score, replicate 1": -0.515}
{"target gene": "CG13437", "dsRNA": "DRSC06397", "droplet/nuclear area B-score, replicate 1": 0.107}
{"target gene": "CG12268", "dsRNA": "DRSC14491", "droplet/nuclear area B-score, replicate 1": 0.937}
{"target gene": "Pex6 + Hao", "dsRNA": "DRSC06704", "droplet/nuclear area B-score, replicate 1": 0.956}
{"target gene": "Buffy", "dsRNA": "DRSC05957", "droplet/nuclear area B-score, replicate 1": 1.26}

Continued:
{"target gene": "caz", "dsRNA": "DRSC20317", "droplet/nuclear area B-score, replicate 1": -0.277}
{"target gene": "caz", "dsRNA": "DRSC22594", "droplet/nuclear area B-score, replicate 1": -2.57}
{"target gene": "caz", "dsRNA": "DRSC23280", "droplet/nuclear area B-score, replicate 1": -1.64}
{"target gene": "CR16735", "dsRNA": "DRSC15144", "droplet/nuclear area B-score, replicate 1": -0.641}
{"target gene": "mus302", "dsRNA": "DRSC09905", "droplet/nuclear area B-score, replicate 1": 1.31}
{"target gene": "CG9757", "dsRNA": "DRSC16557", "droplet/nuclear area B-score, replicate 1": 2.62}
{"target gene": "CG9757", "dsRNA": "DRSC21707", "droplet/nuclear area B-score, replicate 1": 0.361}
{"target gene": "CG14223", "dsRNA": "DRSC19580", "droplet/nuclear area B-score, replicate 1": -0.165}
{"target gene": "Usp15-31", "dsRNA": "DRSC04426", "droplet/nuclear area B-score, replicate 1": -0.0431}
{"target gene": "Usp15-31", "dsRNA": "DRSC04532", "droplet/nuclear area B-score, replicate 1": 3.38}
{"target gene": "RpS12", "dsRNA": "DRSC11270", "droplet/nuclear area B-score, replicate 1": 5.95}
{"target gene": "wcy", "dsRNA": "DRSC20132", "droplet/nuclear area B-score, replicate 1": -0.312}
{"target gene": "Fitm", "dsRNA": "DRSC09772", "droplet/nuclear area B-score, replicate 1": 0.928}
{"target gene": "RpS14b", "dsRNA": "DRSC18711", "droplet/nuclear area B-score, replicate 1": 2.45}
{"target gene": "Ir7e", "dsRNA": "DRSC18011", "droplet/nuclear area B-score, replicate 1": 0.373}
{"target gene": "CG34393", "dsRNA": "DRSC00419", "droplet/nuclear area B-score, replicate 1": -1.52}
{"target gene": "CG34393", "dsRNA": "DRSC00710", "droplet/nuclear area B-score, replicate 1": -0.0568}
{"target gene": "nanos", "dsRNA": "DRSC17018", "droplet/nuclear area B-score, replicate 1": 0.853}
{"target gene": "goe", "dsRNA": "DRSC19345", "droplet/nuclear area B-score, replicate 1": 0.679}
{"target gene": "Pp1-87B", "dsRNA": "DRSC16794", "droplet/nuclear area B-score, replicate 1": -0.0377}
{"target gene": "Pp1-87B", "dsRNA": "DRSC23299", "droplet/nuclear area B-score, replicate 1": 0.444}
{"target gene": "CG14341", "dsRNA": "DRSC00371", "droplet/nuclear area B-score, replicate 1": -1.6}
{"target gene": "CG33090", "dsRNA": "DRSC01908", "droplet/nuclear area B-score, replicate 1": -0.19}
{"target gene": "Hcs", "dsRNA": "DRSC12070", "droplet/nuclear area B-score, replicate 1": 0.697}
{"target gene": "Hcs", "dsRNA": "DRSC12256", "droplet/nuclear area B-score, replicate 1": 0.407}
{"target gene": "CG4313", "dsRNA": "DRSC18514", "droplet/nuclear area B-score, replicate 1": -4.11}
{"target gene": "MFS18", "dsRNA": "DRSC00452", "droplet/nuclear area B-score, replicate 1": -0.772}
